Results deposited as PubChem BioAssay AID686938 (Drosophila RNAi Screening Center, 2013).
The deposit covers about 23,000 reagents; shown is a random part of those that have a named target and a result. In the full data, 75 (0.33%) were called active. 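Raw plate signals without normalisation; calls rest on plate z-scores that were not deposited; ratio present for only 364 wells.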 A plus sign joins genes that one reagent is predicted to hit. The record does not give: the dose of the treatment.

Screen: 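Looking for CRAC channel components and the factors controlling them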 (primary screen)
System: Drosophila S2R+ cells
Reagents: long dsRNA against Drosophila genes, about 0.25 µg dsRNA per well, roughly 10,000 cells
Time to read-out: 5 days of knock-down before the calcium assay
Conditions: thapsigargin (SERCA pump blocker) to empty calcium stores; entry signal taken 4 min after adding it
Measurement: 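Duplicate raw fluo-4 intensities per well from a plate reader, at rest and four minutes after thapsigargin emptied calcium stores; entry-to-rest ratio filled for only some wells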
Scale: calcium entry signal: higher = stronger calcium signal after store depletion; entry to resting ratio: higher = more calcium entry relative to resting level; resting calcium signal: higher = higher resting calcium signal
Active means: 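Hit if the duplicate-averaged plate z-score for entry over resting signal is under −3; wells with weak total dye signal (Fmax z < −2) or more than 5 off-targets removed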
Meaning of the calls: active = strongly reduced calcium entry; inactive = no strong reduction

Gene | DRSC id | calcium entry signal, replicate 1 (fluorescence units) | calcium entry signal, replicate 2 (fluorescence units) | entry to resting ratio | resting calcium signal, replicate 1 (fluorescence units) | resting calcium signal, replicate 2 (fluorescence units) | Outcome
Cht8 (Chitinase 8) | DRSC04546 | 3.93e7 | 4.94e7 | – | 2.14e7 | 2.03e7 | inactive
CG13601 | DRSC14604 | 3.10e7 | 3.06e7 | – | 1.55e7 | 1.41e7 | inactive
Kaz1-ORFB | DRSC08669 | 3.16e7 | 4.46e7 | – | 1.72e7 | 2.08e7 | inactive
mthl13 (methuselah-like 13) | DRSC05238 | 4.01e7 | 5.60e7 | – | 1.71e7 | 2.37e7 | inactive
CG11899 | DRSC16656 | 2.75e7 | 2.86e7 | – | 1.43e7 | 1.42e7 | inactive
CG33462 | DRSC22902 | 4.81e7 | 3.78e7 | – | 2.45e7 | 1.78e7 | inactive
lncRNA:CR43242 (long non-coding RNA:CR43242) | DRSC03827 | 4.76e7 | 4.54e7 | – | 2.24e7 | 2.08e7 | inactive
tey (teyrha-meyrha) | DRSC11042 | 3.54e7 | 3.56e7 | – | 1.63e7 | 1.71e7 | inactive
tey (teyrha-meyrha) | DRSC21709 | 3.15e7 | 3.35e7 | – | 1.70e7 | 1.48e7 | inactive
Septin5 (Septin 5) | DRSC06843 | 3.41e7 | 3.11e7 | – | 1.57e7 | 1.43e7 | inactive
CG12299 | DRSC02158 | 4.41e7 | – | – | 1.80e7 | – | inactive
Myo10A (Myosin 10A) | DRSC19758 | 3.88e7 | 4.89e7 | – | 1.91e7 | 2.46e7 | inactive
Myo10A (Myosin 10A) | DRSC19834 | 4.62e7 | 4.05e7 | – | 2.15e7 | 1.71e7 | inactive
Myo10A (Myosin 10A) | DRSC19837 | 3.55e7 | 5.36e7 | – | 1.69e7 | 2.24e7 | inactive
Myo10A (Myosin 10A) | DRSC23140 | 3.73e7 | 4.48e7 | – | 1.95e7 | 2.06e7 | inactive
CG5958 | DRSC02915 | 3.97e7 | 4.12e7 | – | 1.88e7 | 1.97e7 | inactive
Ctr1A (Copper transporter 1A) | DRSC18336 | 3.61e7 | 3.30e7 | – | 1.87e7 | 1.75e7 | inactive
CG33491 (retired record) + CG33496 (retired record) + CG33487 (retired record) + 1 more | DRSC22969 | 3.53e7 | 4.02e7 | – | 2.00e7 | 1.74e7 | inactive
nAChRbeta1 (nicotinic Acetylcholine Receptor beta1) | DRSC08097 | 4.32e7 | 4.36e7 | – | 2.42e7 | 1.97e7 | inactive
nAChRbeta1 (nicotinic Acetylcholine Receptor beta1) | DRSC08728 | 5.51e7 | 4.93e7 | – | 3.70e7 | 1.63e7 | inactive
luna | DRSC05253 | 3.05e7 | 4.41e7 | – | 1.46e7 | 1.92e7 | inactive
luna | DRSC06663 | 2.91e7 | 4.50e7 | – | 1.76e7 | 2.76e7 | inactive
luna | DRSC07336 | 3.94e7 | 4.68e7 | – | 1.89e7 | 2.27e7 | inactive
CG30389 | DRSC04077 | 4.71e7 | – | – | 2.61e7 | – | inactive
CG30389 | DRSC04452 | 3.83e7 | 4.38e7 | – | 2.02e7 | 1.90e7 | inactive
CG11369 | DRSC17779 | 3.16e7 | 3.30e7 | – | 1.63e7 | 1.64e7 | inactive
Gcn5 (Gcn5 acetyltransferase) | DRSC11248 | 3.55e7 | 2.93e7 | – | 2.90e7 | 1.51e7 | inactive
Top1 (Topoisomerase 1) | DRSC20295 | 1.92e7 | 2.58e7 | – | 1.09e7 | 1.13e7 | inactive

The list goes on (9 carried over from the part before).
Gene | DRSC id | calcium entry signal, replicate 1 (fluorescence units) | calcium entry signal, replicate 2 (fluorescence units) | entry to resting ratio | resting calcium signal, replicate 1 (fluorescence units) | resting calcium signal, replicate 2 (fluorescence units) | Outcome
nAChRbeta1 (nicotinic Acetylcholine Receptor beta1) | DRSC08728 | 5.51e7 | 4.93e7 | – | 3.70e7 | 1.63e7 | inactive
luna | DRSC05253 | 3.05e7 | 4.41e7 | – | 1.46e7 | 1.92e7 | inactive
luna | DRSC06663 | 2.91e7 | 4.50e7 | – | 1.76e7 | 2.76e7 | inactive
luna | DRSC07336 | 3.94e7 | 4.68e7 | – | 1.89e7 | 2.27e7 | inactive
CG30389 | DRSC04077 | 4.71e7 | – | – | 2.61e7 | – | inactive
CG30389 | DRSC04452 | 3.83e7 | 4.38e7 | – | 2.02e7 | 1.90e7 | inactive
CG11369 | DRSC17779 | 3.16e7 | 3.30e7 | – | 1.63e7 | 1.64e7 | inactive
Gcn5 (Gcn5 acetyltransferase) | DRSC11248 | 3.55e7 | 2.93e7 | – | 2.90e7 | 1.51e7 | inactive
Top1 (Topoisomerase 1) | DRSC20295 | 1.92e7 | 2.58e7 | – | 1.09e7 | 1.13e7 | inactive
Tmx3 (Thioredoxin-related transmembrane protein 3) | DRSC10471 | 4.00e7 | 5.34e7 | – | 1.86e7 | 3.38e7 | inactive
Cyp9b2 (Cytochrome P450 9b2) | DRSC07390 | 3.28e7 | 4.33e7 | – | 1.63e7 | 1.88e7 | inactive
CG14441 | DRSC17934 | 3.52e7 | 3.61e7 | – | 1.79e7 | 1.86e7 | inactive
CG8814 | DRSC00707 | 4.25e7 | – | – | 2.31e7 | – | inactive
CG17637 | DRSC11740 | 2.85e7 | 4.39e7 | – | 1.48e7 | 1.92e7 | inactive
Gnpat (Glyceronephosphate O-acyltransferase) | DRSC16960 | 2.99e7 | 4.45e7 | – | 1.54e7 | 1.95e7 | inactive
SMSr (Sphingomyelin synthase related) | DRSC10998 | 5.65e7 | 3.53e7 | – | 3.60e7 | 1.64e7 | inactive
SMSr (Sphingomyelin synthase related) | DRSC10999 | 2.68e7 | 4.57e7 | – | 1.27e7 | 1.95e7 | inactive
CG31161 | DRSC16144 | 4.35e7 | 5.79e7 | – | 1.95e7 | 2.27e7 | inactive
UbcE2H (Ubiquitin conjugating enzyme E2H) | DRSC18221 | 2.98e7 | 2.25e7 | – | 1.15e7 | 1.05e7 | inactive
sinu (sinuous) | DRSC09752 | 3.28e7 | 1.95e7 | – | 1.59e7 | 1.09e7 | inactive
Hsepi (Heparan sulfate C5-epimerase) | DRSC04986 | 4.69e7 | 4.58e7 | – | 2.30e7 | 2.17e7 | inactive
CG4332 | DRSC19890 | 3.66e7 | 4.19e7 | – | 1.71e7 | 1.88e7 | inactive
ihog (interference hedgehog) | DRSC03157 | 3.94e7 | – | – | 2.16e7 | – | inactive
CG11858 | DRSC14412 | 2.89e7 | 2.72e7 | – | 1.68e7 | 1.32e7 | inactive
deltaCOP (Coat Protein (coatomer) delta) | DRSC18760 | 1.83e7 | 1.72e7 | – | 1.50e7 | 1.18e7 | active
Cpr92F (Cuticular protein 92F) | DRSC15819 | 3.79e7 | 4.77e7 | – | 4.65e7 | 2.04e7 | inactive
CG9877 | DRSC04587 | 4.01e7 | 4.06e7 | – | 2.03e7 | 1.81e7 | inactive
Or46a + asRNA:CR43467 | DRSC07489 | 2.61e7 | 3.00e7 | – | 1.26e7 | 1.46e7 | inactive
Or46a + asRNA:CR43467 | DRSC07490 | 2.72e7 | 2.98e7 | – | 1.23e7 | 1.41e7 | inactive
Or46a + asRNA:CR43467 | DRSC21590 | 3.56e7 | 2.92e7 | – | 1.78e7 | 1.32e7 | inactive
CG14355 | DRSC14818 | 2.75e7 | 3.43e7 | – | 1.32e7 | 1.45e7 | inactive
Mst57Db (Male-specific RNA 57Db) | DRSC21551 | 3.35e7 | 4.76e7 | – | 1.84e7 | 1.99e7 | inactive
mr (morula) | DRSC04332 | 3.59e7 | – | – | 1.72e7 | – | inactive
mr (morula) | DRSC22856 | 2.27e7 | 3.73e7 | – | 1.11e7 | 1.74e7 | inactive
ORMDL (Orosomucoid 1-like) | DRSC11737 | 3.12e7 | 5.75e7 | – | 1.51e7 | 2.30e7 | inactive
CG31407 | DRSC12761 | 3.42e7 | 5.38e7 | – | 1.71e7 | 2.37e7 | inactive
CG14491 | DRSC06462 | 3.89e7 | 3.03e7 | – | 1.70e7 | 1.57e7 | inactive
Alp4 (Alkaline phosphatase 4) | DRSC14116 | 3.84e7 | 6.24e7 | – | 1.93e7 | 2.48e7 | inactive
spab (space blanket) | DRSC07112 | 2.58e7 | 3.40e7 | – | 1.26e7 | 1.51e7 | inactive
Sb (Stubble) | DRSC16851 | 3.91e7 | 5.46e7 | – | 1.85e7 | 6.36e7 | inactive
CG4269 | DRSC04457 | 3.91e7 | 4.19e7 | – | 1.97e7 | 1.97e7 | inactive
Sugb (Sugar baby) | DRSC10815 | 4.78e7 | 2.82e7 | – | 3.23e7 | 1.38e7 | inactive
twy (twitchy) | DRSC10562 | 2.21e7 | 2.92e7 | – | 1.21e7 | 1.42e7 | inactive
Tsen2 (tRNA splicing endonuclease subunit 2) | DRSC01557 | 2.54e7 | 4.15e7 | – | 1.48e7 | 1.78e7 | inactive
CG17002 | DRSC04978 | 4.12e7 | – | – | 2.10e7 | – | inactive
DNAlig4 (DNA ligase 4) | DRSC19436 | 5.06e7 | 4.13e7 | – | 2.20e7 | 1.97e7 | inactive
CG18262 | DRSC18149 | 3.57e7 | 3.46e7 | – | 1.68e7 | 1.42e7 | inactive
LRP1 (LDL receptor protein 1) | DRSC07238 | 3.17e7 | 3.82e7 | – | 1.54e7 | 1.77e7 | inactive
CG14624 | DRSC18634 | 4.33e7 | 5.35e7 | 2.4 | 1.84e7 | 2.29e7 | inactive
CG15741 | DRSC19707 | 3.49e7 | 4.33e7 | – | 1.61e7 | 2.23e7 | inactive
RpS4 (Ribosomal protein S4) | DRSC11272 | 1.16e7 | 9.50e6 | – | 8.67e6 | 8.18e6 | inactive
CG9449 | DRSC11073 | 2.92e7 | 4.53e7 | – | 1.37e7 | 1.97e7 | inactive
aux (auxilin) | DRSC12161 | 3.49e7 | 3.98e7 | – | 1.57e7 | 2.91e7 | inactive
Dph2 (Diphthamide biosynthesis 2) | DRSC16222 | 4.30e7 | 4.56e7 | – | 1.76e7 | 1.99e7 | inactive
CG13721 | DRSC08330 | 2.04e7 | 3.17e7 | – | 1.09e7 | 1.43e7 | inactive
geko | DRSC10044 | 3.59e7 | 5.53e7 | – | 1.71e7 | 2.05e7 | inactive
geko | DRSC10045 | 3.86e7 | 5.25e7 | – | 1.71e7 | 1.89e7 | inactive
